Results: the supplement of paper PMC4604168 (melanoma cell lines)
The list shows a part of the results. Many values rest on one well or one pass, so single values are uncertain.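 Imaging used 1,536-well plates; nuclei positive for cleaved PARP by antibody were divided by total DNA-stained nuclei to yield the apoptosis fraction. Doses for screening kept most cells viable, and cell lines differ markedly in resting and induced cleaved-PARP levels.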

System: COLO829
Assay: cleaved PARP positive nuclei fraction relative to DMSO control; melanoma cells; higher = more apoptosis
Conditions: library dose: low library concentration; 72 h

Row | SMILES | cleaved PARP positive nuclei fraction [%]
1 | CCCS(=O)(=O)Nc1ccc(F)c(C(=O)c2c[nH]c3ncc(Cl)cc23)c1F + O=C1NC(=O)/C(=C/c2ccc(-c3ccc(F)cc3O)o2)S1 [AS252424] (first compound 0.08 µM, partner dose 1 µM) | 157
2 | Cn1c(=O)n(-c2ccc(C(C)(C)C#N)cc2)c2c3cc(-c4cnc5ccccc5c4)ccc3ncc21 + CC(C)CCN1c2nc(Nc3cc(F)c(O)c(F)c3)ncc2N(C)C(=O)C1C [BID1870] (first compound 0.004 µM, partner dose 0.2 µM) | 39.3
3 | CN1CCN(c2ccc3nc(-c4c(N)c5c(F)cccc5[nH]c4=O)[nH]c3c2)CC1 [Dovitinib] + Oc1cc(-c2nc(-c3ccccc3)[nH]c2-c2ccncc2)ccc1Cl [L779450] (first compound 0.1 µM, partner dose 0.2 µM) | 91.8
4 | Nc1nc(F)nc2c1ncn2[C@@H]1O[C@H](CO)[C@@H](O)[C@@H]1O [fludarabine] + COc1cc(N2CCC(N3CCN(C)CC3)CC2)ccc1Nc1ncc(Cl)c(Nc2ccccc2S(=O)(=O)C(C)C)n1 [NVP-TAE684] (first compound 0.2 µM, partner dose 0.08 µM) | 163
5 | Nc1ncn([C@H]2C[C@H](O)[C@@H](CO)O2)c(=O)n1 [decitabine] + COc1ccc(-c2ccc3c(N4CCOCC4)nc(N4C[C@@H](C)O[C@@H](C)C4)nc3n2)cc1CO [KU0063794] (first compound 0.1 µM, partner dose 0.02 µM) | 174
6 | CCCS(=O)(=O)Nc1ccc(F)c(C(=O)c2c[nH]c3ncc(Cl)cc23)c1F + Oc1cc(-c2nc(-c3ccccc3)[nH]c2-c2ccncc2)ccc1Cl [L779450] (first compound 0.08 µM, partner dose 0.2 µM) | 100
7 | C=C(c1ccc(C(=O)O)cc1)c1cc2c(cc1C)C(C)(C)CCC2(C)C [Bexarotene] + CCCCCCCCCCCC1=C(O)C(=O)C=C(O)C1=O [Embelin] (first compound 2 µM, partner dose 1.2 µM) | 91.8
8 | O=C(O)c1ccc2c(c1)nc(Nc1cccc(Cl)c1)c1ccncc12 + Oc1nc(-c2ccc(C(F)(F)F)cc2)nc2c1CSCC2 [XAV939] (first compound 0.4 µM, partner dose 2 µM) | 165
9 | C=C(c1ccc(C(=O)O)cc1)c1cc2c(cc1C)C(C)(C)CCC2(C)C [Bexarotene] + COC(=O)c1sccc1S(=O)(=O)Nc1ccc(Nc2ccccc2)cc1OC [GSK0660] (first compound 2 µM, partner dose 1 µM) | 96.5
10 | Nc1nc(F)nc2c1ncn2[C@@H]1O[C@H](CO)[C@@H](O)[C@@H]1O [fludarabine] + COc1ccc2c(c1)CCC1C2CCC2(C)C(NCCCCCCN3C(=O)C=CC3=O)CCC12 [U73122] (first compound 0.2 µM, partner dose 0.4 µM) | 140
11 | O=C(O)[C@@H]1[O][Sb](=[O])([O][Sb]2(=[O])[O][C@H]([C@H](O)CO)[C@H](O)[C@H](C(=O)O)[O]2)[O][C@H]([C@H](O)CO)[C@@H]1O (stereo not given in full) [stibogluconate] + O=C(O)C(=O)Nc1sc2c(c1C(=O)O)CCNC2 [TCS401] (first compound 2 µM, partner dose 1.66667 µM) | 206
12 | C=C(c1ccc(C(=O)O)cc1)c1cc2c(cc1C)C(C)(C)CCC2(C)C [Bexarotene] + Cc1cc([N+](=O)[O-])ccc1NS(=O)(=O)c1cc(Cl)ccc1Cl [FH535] (first compound 2 µM, partner dose 1 µM) | 90.6
13 | C=C(c1ccc(C(=O)O)cc1)c1cc2c(cc1C)C(C)(C)CCC2(C)C [Bexarotene] + COc1ccc(COc2ccc(Cc3cnc(N)nc3N)cc2OC)cc1 [GW2580] (first compound 2 µM, partner dose 1 µM) | 90.7
14 | Nc1nc(F)nc2c1ncn2[C@@H]1O[C@H](CO)[C@@H](O)[C@@H]1O [fludarabine] + O=C(Nc1ccccc1)c1cc([N+](=O)[O-])ccc1Cl [GW9662] (first compound 0.2 µM, partner dose 2 µM) | 48.2
15 | CC(C)C[C@H](NC(=O)[C@H](Cc1ccccc1)NC(=O)c1cnccn1)B(O)O [Bortezomib] + COC(=O)c1sccc1S(=O)(=O)Nc1ccc(Nc2ccccc2)cc1OC [GSK0660] (first compound 0.001 µM, partner dose 1 µM) | 113

Rewritten with tabs: entries from further up
Row	SMILES	cleaved PARP positive nuclei fraction [%]
14	Nc1nc(F)nc2c1ncn2[C@@H]1O[C@H](CO)[C@@H](O)[C@@H]1O [fludarabine] + O=C(Nc1ccccc1)c1cc([N+](=O)[O-])ccc1Cl [GW9662] (first compound 0.2 µM, partner dose 2 µM)	48.2
15	CC(C)C[C@H](NC(=O)[C@H](Cc1ccccc1)NC(=O)c1cnccn1)B(O)O [Bortezomib] + COC(=O)c1sccc1S(=O)(=O)Nc1ccc(Nc2ccccc2)cc1OC [GSK0660] (first compound 0.001 µM, partner dose 1 µM)	113
